A short description of this data set: Caco-2 permeability assay. It counts as in vitro ADME. To be noted: human; for Papp: Mean ± RSD, n = 2. For orientation: Caco-2 cells form a polarised layer with tight junctions and transporters.

Turning to `CC(C)NCC(O)COc1ccc(CC(N)=O)cc1` (stereo not drawn) [Atenolol], the efflux ratio (in general, a quotient of directional permeabilities that is used to spot active efflux) (Caco-2) stood at 9.8. The Papp (usually the rate of passage across a membrane or cell layer, normalised by area and donor concentration) is 0.23 ± 0.02 ×10⁻⁶ cm/s (Caco-2, Papp (A‒B), direction A‒B) and 2.2 ± 0.1 ×10⁻⁶ cm/s (Caco-2, Papp (B‒A), direction B‒A).

Values taken from article PMC8245858 (Acta Pharmaceutica Sinica. B, 2021).
